# ± gives the standard deviation of the averaged measurements. The list shows a part of the results.
# What was measured:
# Test in all cases: NP40-soluble protein abundance relative to vehicle (solubility fold change) (ratio); higher = more soluble protein in presence of GTP
# MNT = biological target: T1, MNT (UniProt Q99583)
# T1 sequence (whole entry): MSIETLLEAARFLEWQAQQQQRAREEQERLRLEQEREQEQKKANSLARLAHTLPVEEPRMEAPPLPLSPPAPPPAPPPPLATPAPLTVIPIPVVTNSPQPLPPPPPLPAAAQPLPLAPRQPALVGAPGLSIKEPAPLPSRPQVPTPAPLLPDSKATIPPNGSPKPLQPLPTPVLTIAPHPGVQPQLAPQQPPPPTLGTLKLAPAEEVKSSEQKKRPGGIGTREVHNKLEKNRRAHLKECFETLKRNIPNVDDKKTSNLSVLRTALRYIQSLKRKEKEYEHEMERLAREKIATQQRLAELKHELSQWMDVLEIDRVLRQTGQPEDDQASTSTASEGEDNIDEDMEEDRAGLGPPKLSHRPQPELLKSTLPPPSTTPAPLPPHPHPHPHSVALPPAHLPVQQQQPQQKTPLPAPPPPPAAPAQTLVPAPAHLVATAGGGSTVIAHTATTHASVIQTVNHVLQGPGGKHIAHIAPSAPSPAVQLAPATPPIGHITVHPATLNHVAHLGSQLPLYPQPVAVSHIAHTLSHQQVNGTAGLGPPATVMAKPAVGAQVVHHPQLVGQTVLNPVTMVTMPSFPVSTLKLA
# Method in brief: (§1)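 Jurkat crude lysate (Dounce-homogenised) was treated with eight concentrations from 0.1 to 10 mM for 10 min at room temperature, then 3 min at 37 °C. It was solubilised with 0.8% NP40 and benzonase (60 min, 4 °C) and ultracentrifuged, and the supernatant was TMT-labelled for LC-MS/MS. Intensities were vsn-normalised, and the value is the fold change against the NP40-processed vehicle per replicate, from three independent experiments.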
# NACC1 = biological target: T2, NACC1 (UniProt Q96RE7)
# T2 sequence (whole entry): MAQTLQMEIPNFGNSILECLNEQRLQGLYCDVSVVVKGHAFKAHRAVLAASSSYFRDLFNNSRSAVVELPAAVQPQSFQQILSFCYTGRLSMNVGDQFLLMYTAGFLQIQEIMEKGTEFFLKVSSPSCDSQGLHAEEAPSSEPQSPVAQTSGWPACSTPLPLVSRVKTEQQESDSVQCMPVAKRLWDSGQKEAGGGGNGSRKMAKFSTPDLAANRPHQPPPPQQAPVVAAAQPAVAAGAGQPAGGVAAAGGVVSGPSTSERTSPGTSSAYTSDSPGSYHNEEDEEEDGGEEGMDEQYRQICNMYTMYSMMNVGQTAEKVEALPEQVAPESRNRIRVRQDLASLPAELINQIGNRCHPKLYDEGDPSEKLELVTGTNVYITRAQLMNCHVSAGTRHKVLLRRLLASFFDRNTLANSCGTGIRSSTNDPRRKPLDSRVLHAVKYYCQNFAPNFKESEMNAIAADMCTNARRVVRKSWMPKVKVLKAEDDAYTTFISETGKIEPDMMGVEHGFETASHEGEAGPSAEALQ
# Method in brief: as §1
# NOC4L = biological target: T3, NOC4L (UniProt Q9BVI4)
# T3 sequence (whole entry): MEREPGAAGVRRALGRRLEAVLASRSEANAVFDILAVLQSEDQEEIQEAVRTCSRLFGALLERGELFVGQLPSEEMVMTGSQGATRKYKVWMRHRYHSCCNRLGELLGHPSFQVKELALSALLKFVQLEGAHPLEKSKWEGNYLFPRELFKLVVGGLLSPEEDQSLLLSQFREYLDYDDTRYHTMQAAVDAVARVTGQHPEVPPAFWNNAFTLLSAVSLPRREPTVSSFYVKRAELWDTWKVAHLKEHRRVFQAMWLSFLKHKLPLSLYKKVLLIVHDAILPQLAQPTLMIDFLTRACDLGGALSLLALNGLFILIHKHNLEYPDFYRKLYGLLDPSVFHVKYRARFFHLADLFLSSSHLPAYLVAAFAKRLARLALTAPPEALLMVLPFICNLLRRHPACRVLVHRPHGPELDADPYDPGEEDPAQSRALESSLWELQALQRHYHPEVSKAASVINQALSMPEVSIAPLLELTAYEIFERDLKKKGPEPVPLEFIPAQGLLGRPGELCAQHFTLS
# Method in brief: as §1
# NUF2 = biological target: T4, NUF2 (UniProt Q9BZD4)
# T4 sequence (whole entry): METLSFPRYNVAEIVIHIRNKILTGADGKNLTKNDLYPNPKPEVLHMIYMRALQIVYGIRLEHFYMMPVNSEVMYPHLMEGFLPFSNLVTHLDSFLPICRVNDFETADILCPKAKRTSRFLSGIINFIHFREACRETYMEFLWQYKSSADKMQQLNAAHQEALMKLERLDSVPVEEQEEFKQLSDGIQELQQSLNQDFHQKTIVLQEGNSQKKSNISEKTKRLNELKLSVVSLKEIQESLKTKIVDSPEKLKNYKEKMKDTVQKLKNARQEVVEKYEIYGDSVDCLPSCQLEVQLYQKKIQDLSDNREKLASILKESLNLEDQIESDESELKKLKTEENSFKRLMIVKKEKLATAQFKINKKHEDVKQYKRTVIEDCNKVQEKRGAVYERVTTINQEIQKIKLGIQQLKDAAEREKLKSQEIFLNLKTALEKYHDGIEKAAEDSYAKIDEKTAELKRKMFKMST
# Method in brief: as §1
# RUFY1 = biological target: T5, RUFY1 (UniProt Q96T51)
# T5 sequence (whole entry): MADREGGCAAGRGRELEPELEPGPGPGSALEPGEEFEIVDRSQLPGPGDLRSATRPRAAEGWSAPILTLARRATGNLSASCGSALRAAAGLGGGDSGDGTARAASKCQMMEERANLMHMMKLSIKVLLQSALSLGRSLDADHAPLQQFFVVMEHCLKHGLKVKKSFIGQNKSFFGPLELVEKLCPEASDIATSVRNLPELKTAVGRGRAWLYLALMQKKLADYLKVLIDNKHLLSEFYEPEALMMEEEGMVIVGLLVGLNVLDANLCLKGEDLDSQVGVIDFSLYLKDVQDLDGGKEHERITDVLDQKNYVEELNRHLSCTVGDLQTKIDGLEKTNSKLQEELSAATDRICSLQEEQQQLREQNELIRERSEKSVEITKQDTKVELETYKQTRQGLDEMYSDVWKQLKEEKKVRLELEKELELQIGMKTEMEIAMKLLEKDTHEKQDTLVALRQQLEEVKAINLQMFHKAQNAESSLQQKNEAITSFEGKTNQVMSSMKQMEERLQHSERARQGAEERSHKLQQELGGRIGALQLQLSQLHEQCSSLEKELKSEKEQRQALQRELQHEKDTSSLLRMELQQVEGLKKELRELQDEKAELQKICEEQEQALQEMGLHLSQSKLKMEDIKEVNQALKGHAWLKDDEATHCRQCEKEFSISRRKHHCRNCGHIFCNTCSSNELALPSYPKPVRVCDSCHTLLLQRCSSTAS
# Method in brief: as §1
# STRBP = biological target: T6, STRBP (UniProt Q96SI9)
# T6 sequence (whole entry): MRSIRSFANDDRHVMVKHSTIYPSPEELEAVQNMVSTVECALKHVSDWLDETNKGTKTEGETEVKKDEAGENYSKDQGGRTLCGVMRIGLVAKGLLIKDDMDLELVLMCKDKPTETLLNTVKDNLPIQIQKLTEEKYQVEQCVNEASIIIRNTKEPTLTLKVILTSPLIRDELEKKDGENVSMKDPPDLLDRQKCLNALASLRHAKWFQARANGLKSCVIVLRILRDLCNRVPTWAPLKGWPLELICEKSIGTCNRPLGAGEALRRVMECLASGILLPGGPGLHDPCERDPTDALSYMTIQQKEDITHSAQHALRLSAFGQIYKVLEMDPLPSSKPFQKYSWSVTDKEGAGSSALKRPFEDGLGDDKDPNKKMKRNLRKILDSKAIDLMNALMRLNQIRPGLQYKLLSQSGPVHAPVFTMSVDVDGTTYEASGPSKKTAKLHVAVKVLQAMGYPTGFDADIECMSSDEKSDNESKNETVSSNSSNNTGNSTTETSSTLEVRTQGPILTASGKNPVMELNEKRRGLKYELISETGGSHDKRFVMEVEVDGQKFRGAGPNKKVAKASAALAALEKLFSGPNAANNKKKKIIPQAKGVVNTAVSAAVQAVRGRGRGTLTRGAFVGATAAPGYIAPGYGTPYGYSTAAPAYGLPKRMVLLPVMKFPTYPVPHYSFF
# Method in brief: as §1
# TP53RK = biological target: T7, TP53RK (UniProt Q96S44)
# T7 sequence (whole entry): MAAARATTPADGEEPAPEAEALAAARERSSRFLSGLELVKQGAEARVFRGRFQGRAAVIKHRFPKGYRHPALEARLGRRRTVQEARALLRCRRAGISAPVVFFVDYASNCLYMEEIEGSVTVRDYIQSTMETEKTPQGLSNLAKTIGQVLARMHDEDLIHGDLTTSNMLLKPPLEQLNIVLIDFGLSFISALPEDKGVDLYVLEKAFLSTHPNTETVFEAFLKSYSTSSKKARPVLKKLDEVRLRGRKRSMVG
# Method in brief: as §1
smiles,measurement,setting,value
Nc1nc2c(ncn2[C@@H]2O[C@H](COP(=O)(O)OP(=O)(O)OP(=O)(O)O)[C@@H](O)[C@H]2O)c(=O)[nH]1 [guanosine triphosphate],NP40-soluble protein abundance,MNT; concentration: 4mM,0.898 ± 0.019
same,NP40-soluble protein abundance,MNT; concentration: 6mM,0.875 ± 0.029
same,NP40-soluble protein abundance,MNT; concentration: 8mM,0.89 ± 0.052
same,NP40-soluble protein abundance,MNT; concentration: 10mM,0.915 ± 0.015
same,NP40-soluble protein abundance,NACC1; concentration: 0.1mM,0.948 ± 0.048
same,NP40-soluble protein abundance,NACC1; concentration: 0.5mM,0.964 ± 0.042
same,NP40-soluble protein abundance,NACC1; concentration: 1mM,0.945 ± 0.043
same,NP40-soluble protein abundance,NACC1; concentration: 2mM,0.966 ± 0.035
same,NP40-soluble protein abundance,NACC1; concentration: 4mM,0.907 ± 0.052
same,NP40-soluble protein abundance,NACC1; concentration: 6mM,0.939 ± 0.013
same,NP40-soluble protein abundance,NACC1; concentration: 8mM,0.909 ± 0.068
same,NP40-soluble protein abundance,NACC1; concentration: 10mM,0.933 ± 0.029
same,NP40-soluble protein abundance,NOC4L; concentration: 0.1mM,1.02 ± 0.06
same,NP40-soluble protein abundance,NOC4L; concentration: 0.5mM,0.976 ± 0.018
same,NP40-soluble protein abundance,NOC4L; concentration: 1mM,0.938 ± 0.057
same,NP40-soluble protein abundance,NOC4L; concentration: 2mM,1.02 ± 0.072
same,NP40-soluble protein abundance,NOC4L; concentration: 4mM,1 ± 0.024
same,NP40-soluble protein abundance,NOC4L; concentration: 6mM,0.976 ± 0.01
same,NP40-soluble protein abundance,NOC4L; concentration: 8mM,0.965 ± 0.071
same,NP40-soluble protein abundance,NOC4L; concentration: 10mM,0.927 ± 0.037
same,NP40-soluble protein abundance,NUF2; concentration: 0.1mM,0.933 ± 0.1
same,NP40-soluble protein abundance,NUF2; concentration: 0.5mM,0.914 ± 0.095
same,NP40-soluble protein abundance,NUF2; concentration: 1mM,0.97 ± 0.047
same,NP40-soluble protein abundance,NUF2; concentration: 2mM,0.919 ± 0.12
same,NP40-soluble protein abundance,NUF2; concentration: 4mM,0.954 ± 0.13
same,NP40-soluble protein abundance,NUF2; concentration: 6mM,0.977 ± 0.046
same,NP40-soluble protein abundance,NUF2; concentration: 8mM,0.963 ± 0.069
same,NP40-soluble protein abundance,NUF2; concentration: 10mM,1.01 ± 0.086
same,NP40-soluble protein abundance,RUFY1; concentration: 0.1mM,0.955 ± 0.035
same,NP40-soluble protein abundance,RUFY1; concentration: 0.5mM,0.98 ± 0.019
same,NP40-soluble protein abundance,RUFY1; concentration: 1mM,0.918 ± 0.05
same,NP40-soluble protein abundance,RUFY1; concentration: 2mM,0.918 ± 0.061
same,NP40-soluble protein abundance,RUFY1; concentration: 4mM,0.883 ± 0.067
same,NP40-soluble protein abundance,RUFY1; concentration: 6mM,0.905 ± 0.062
same,NP40-soluble protein abundance,RUFY1; concentration: 8mM,0.874 ± 0.054
same,NP40-soluble protein abundance,RUFY1; concentration: 10mM,0.9 ± 0.06
same,NP40-soluble protein abundance,STRBP; concentration: 0.1mM,1.04 ± 0.041
same,NP40-soluble protein abundance,STRBP; concentration: 0.5mM,1.09 ± 0.039
same,NP40-soluble protein abundance,STRBP; concentration: 1mM,1.08 ± 0.039
same,NP40-soluble protein abundance,STRBP; concentration: 2mM,1.14 ± 0.063
same,NP40-soluble protein abundance,STRBP; concentration: 4mM,1.17 ± 0.074
same,NP40-soluble protein abundance,STRBP; concentration: 6mM,1.2 ± 0.083
same,NP40-soluble protein abundance,STRBP; concentration: 8mM,1.19 ± 0.098
same,NP40-soluble protein abundance,STRBP; concentration: 10mM,1.19 ± 0.079
same,NP40-soluble protein abundance,TP53RK; concentration: 0.1mM,1.01 ± 0.099
same,NP40-soluble protein abundance,TP53RK; concentration: 0.5mM,0.924 ± 0.079
same,NP40-soluble protein abundance,TP53RK; concentration: 1mM,0.95 ± 0.086
same,NP40-soluble protein abundance,TP53RK; concentration: 2mM,0.893 ± 0.081
same,NP40-soluble protein abundance,TP53RK; concentration: 4mM,0.952 ± 0.073
same,NP40-soluble protein abundance,TP53RK; concentration: 6mM,0.868 ± 0.09
same,NP40-soluble protein abundance,TP53RK; concentration: 8mM,0.904 ± 0.097
same,NP40-soluble protein abundance,TP53RK; concentration: 10mM,0.832 ± 0.085

# Rewritten with tabs: entries from further up.
smiles	measurement	setting	value
Nc1nc2c(ncn2[C@@H]2O[C@H](COP(=O)(O)OP(=O)(O)OP(=O)(O)O)[C@@H](O)[C@H]2O)c(=O)[nH]1 [guanosine triphosphate]	NP40-soluble protein abundance	NACC1; concentration: 10mM	0.933 ± 0.029
same	NP40-soluble protein abundance	NOC4L; concentration: 0.1mM	1.02 ± 0.06
same	NP40-soluble protein abundance	NOC4L; concentration: 0.5mM	0.976 ± 0.018

# Reference: the supplement of paper PMC6411743
